Test [1] deals with His-tag column purified baculovirus AR (UniProt P10275). The test can be described thus: summing-up sentence of the examples (GST pull-down and two-hybrid).
Test [2] shares this target. Briefly: GST pull-down on glutathione-Sepharose beads, with or without DHT, Western blot with anti-AR NH27. On the technique in general: Immunoblotting shows a protein as a band on a membrane.
The target of test [3] is GAL0AR: hormone binding domain of wtAR fused to the GAL4 DBD (human) (UniProt P04386+P10275). Briefly: mammalian two-hybrid, CAT reporter, DU145 cells, 10^-8 M DHT.

By UniProt entry, the sequences of proteins in these tests, tags left out. Where a name states a change or a piece, a line headed by the entry shows the natural chain unless it says otherwise.
UniProt P10275: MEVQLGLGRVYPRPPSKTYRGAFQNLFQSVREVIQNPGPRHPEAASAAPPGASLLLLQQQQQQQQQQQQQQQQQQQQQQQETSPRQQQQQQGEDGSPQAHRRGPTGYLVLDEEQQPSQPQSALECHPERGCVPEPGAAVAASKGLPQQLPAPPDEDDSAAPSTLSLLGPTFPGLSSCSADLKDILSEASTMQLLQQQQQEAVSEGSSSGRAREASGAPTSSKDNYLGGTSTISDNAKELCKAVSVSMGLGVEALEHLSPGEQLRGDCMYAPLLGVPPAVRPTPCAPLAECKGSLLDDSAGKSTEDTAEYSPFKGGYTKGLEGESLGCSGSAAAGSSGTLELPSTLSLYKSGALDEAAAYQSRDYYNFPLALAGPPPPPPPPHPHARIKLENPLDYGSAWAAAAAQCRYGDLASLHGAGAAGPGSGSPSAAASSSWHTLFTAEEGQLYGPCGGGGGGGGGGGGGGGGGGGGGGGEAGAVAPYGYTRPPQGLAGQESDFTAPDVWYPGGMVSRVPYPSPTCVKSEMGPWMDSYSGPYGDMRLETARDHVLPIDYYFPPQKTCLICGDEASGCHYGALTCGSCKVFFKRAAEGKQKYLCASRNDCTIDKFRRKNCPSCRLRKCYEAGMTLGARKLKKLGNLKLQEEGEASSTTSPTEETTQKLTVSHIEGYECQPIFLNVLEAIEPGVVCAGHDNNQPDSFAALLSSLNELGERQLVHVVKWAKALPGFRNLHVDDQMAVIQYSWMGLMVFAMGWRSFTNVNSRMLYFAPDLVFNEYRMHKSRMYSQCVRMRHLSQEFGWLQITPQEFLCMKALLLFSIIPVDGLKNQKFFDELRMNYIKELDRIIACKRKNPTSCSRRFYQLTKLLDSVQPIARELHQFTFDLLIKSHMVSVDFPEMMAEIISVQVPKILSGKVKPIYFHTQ
UniProt P04386: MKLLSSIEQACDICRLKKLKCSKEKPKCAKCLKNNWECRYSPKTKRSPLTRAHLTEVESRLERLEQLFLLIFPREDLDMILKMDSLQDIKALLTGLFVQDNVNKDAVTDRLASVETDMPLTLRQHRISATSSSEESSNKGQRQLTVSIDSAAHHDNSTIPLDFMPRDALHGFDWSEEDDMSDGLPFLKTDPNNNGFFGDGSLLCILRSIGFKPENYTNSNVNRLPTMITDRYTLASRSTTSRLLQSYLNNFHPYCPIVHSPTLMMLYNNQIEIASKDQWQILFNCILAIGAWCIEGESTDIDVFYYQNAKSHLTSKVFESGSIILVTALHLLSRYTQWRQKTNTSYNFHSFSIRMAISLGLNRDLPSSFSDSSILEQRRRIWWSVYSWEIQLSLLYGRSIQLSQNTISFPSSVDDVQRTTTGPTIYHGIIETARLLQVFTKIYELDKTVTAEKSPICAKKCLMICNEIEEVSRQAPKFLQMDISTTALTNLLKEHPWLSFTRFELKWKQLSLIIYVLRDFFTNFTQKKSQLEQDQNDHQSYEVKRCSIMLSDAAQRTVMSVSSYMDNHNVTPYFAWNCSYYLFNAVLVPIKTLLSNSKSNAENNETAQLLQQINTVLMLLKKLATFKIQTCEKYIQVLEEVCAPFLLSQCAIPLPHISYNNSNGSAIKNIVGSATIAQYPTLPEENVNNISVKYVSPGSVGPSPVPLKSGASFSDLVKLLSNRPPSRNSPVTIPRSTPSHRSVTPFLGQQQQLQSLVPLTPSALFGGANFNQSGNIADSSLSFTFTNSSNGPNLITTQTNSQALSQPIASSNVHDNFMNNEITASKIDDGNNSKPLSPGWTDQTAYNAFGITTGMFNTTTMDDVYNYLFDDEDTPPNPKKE

Results are given in words; binding and its absence hold for the method and conditions named. For part of these data: In cells and extracts the contact can be indirect. Some entries that bind do so weakly or less than the wild type. For part of these data: Sequences can lack the tags named with a protein.

B1: Full-length Rb fused to glutathione-S-transferase (GST-Rb1-928) (protein, not shown: a dimerising Fc or GST)
chain: MPPKTPRKTAATAAAAAAEPPAPPPPPPPEEDPEQDSGPEDLPLVRLEFEETEEPDFTALCQKLKIPDHVRERAWLTWEKVSSVDGVLGGYIQKKKELWGICIFIAAVDLDEMSFTFTELQKNIEISVHKFFNLLKEIDTSTKVDNAMSRLLKKYDVLFALFSKLERTCELIYLTQPSSSISTEINSALVLKVSWITFLLAKGEVLQMEDDLVISFQLMLCVLDYFIKLSPPMLLKEPYKTAVIPINGSPRTPRRGQNRSARIAKQLENDTRIIEVLCKEHECNIDEVKNVYFKNFIPFMNSLGLVTSNGLPEVENLSKRYEEIYLKNKDLDARLFLDHDKTLQTDSIDSFETQRTPRKSNLDEEVNVIPPHTPVRTVMNTIQQLMMILNSASDQPSENLISYFNNCTVNPKESILKRVKDIGYIFKEKFAKAVGQGCVEIGSQRYKLGVRLYYRVMESMLKSEEERLSIQNFSKLLNDNIFHMSLLACALEVVMATYSRSTSQNLDSGTDLSFPWILNVLNLKAFDFYKVIESFIKAEGNLTREMIKHLERCEHRIMESLAWLSDSPLFDLIKQSKDREGPTDHLESACPLNLPLQNNHTAADMYLSPVRSPKKKGSTTRVNSTANAETQATSAFQTQKPLKSTSLSLFYKKVYRLAYLRLNTLCERLLSEHPELEHIIWTLFQHTLQNEYELMRDRHLDQIMMCSMYGICKVKNIDLKFKIIVTAYKDLPHAVQETFKRVLIKEEEYDSIIVFYNSVFMQRLKTNILQYASTRPPTLSPIPHIPRSPYKFPSSPLRIPGGNIYISPLKSPYKISEGLPTPTKMTPRSRILVSIGESFGTSEKFQKINQMVCNSDRVLKRSAEGSNPPKPLKKLRFDIEGSDEADGSKHLPGESKFQQKLAEMTSTRTRMQKQKMNDSMDTSNKEEK
For B1, the binding entry in test [1] and in test [2] was “binds” in each case.

B2: ARA54, full length (protein)
chain: MSSEDREAQEDELLALASIYDGDEFRKAESVQGGETRIYLDLPQNFKIFVSGNSNECLQNSGFEYTICFLPPLVLNFELPPDYPSSSPPSFTLSGKWLSPTQLSALCKHLDNLWEEHRGSVVLFAWMQFLKEETLAYLNIVSPFELKIGSQKKVQRRTAQASPNTELDFGGAAGSDVDQEEIVDERAVQDVESLSNLIQEILDFDQAQQIKCFNSKLFLCSICFCEKLGSECMYFLECRHVYCKACLKDYFEIQIRDGQVQCLNCPEPKCPSVATPGQVKELVEAELFARYDRLLLQSSLDLMADVVYCPRPCCQLPVMQEPGCTMGICSSCNFAFCTLCRLTYHGVSPCKVTAEKLMDLRNEYLQADEANKRLLDQRYGKRVIQKALEEMESKEWLEKNSKSCPCCGTPIEKLDGCNKMTCTGCMQYFCWICMGSLSRANPYKHFNDPGSPCFNRLFYAVDVDDDIWEDEVED
As to B2, the binding result in test [3] was “binds”.

The record behind these values is patent publication US20030198990A1.
